# Results of single-concentration screens

Chains of the proteins cited; added tags and fusions are not shown. Residues count along the entry.
UniProt A4I591, 1-473: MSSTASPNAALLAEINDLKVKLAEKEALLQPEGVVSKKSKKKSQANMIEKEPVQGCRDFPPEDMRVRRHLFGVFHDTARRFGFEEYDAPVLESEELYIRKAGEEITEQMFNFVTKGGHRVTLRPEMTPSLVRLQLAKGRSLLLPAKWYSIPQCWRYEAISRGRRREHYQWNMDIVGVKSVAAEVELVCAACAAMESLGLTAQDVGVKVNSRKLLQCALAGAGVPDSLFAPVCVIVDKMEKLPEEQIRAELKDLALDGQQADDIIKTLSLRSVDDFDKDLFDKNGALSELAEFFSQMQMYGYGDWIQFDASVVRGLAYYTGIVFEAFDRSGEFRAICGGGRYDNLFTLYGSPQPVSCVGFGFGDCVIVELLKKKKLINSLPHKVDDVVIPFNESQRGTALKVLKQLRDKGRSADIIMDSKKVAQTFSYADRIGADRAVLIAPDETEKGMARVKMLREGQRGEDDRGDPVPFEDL

Values are the deposited “Percent Effect”, in %. How 0% and 100% were set is not recorded. Most values in the screen are low, and negative values occur. The compounds are a random part of those screened. A dash means the value is not listed here; it may have been measured.

LiHisRS: 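Histidine-tRNA ligase, Leishmania infantum (UniProt A4I591). Enzyme assay of histidyl-tRNA synthetase; the read-out is not stated. Tested at 30 µM. Higher reads as stronger inhibition (inferred: compounds with an IC50 in retests scored well above the rest). The assay is labelled LdHisRS but filed under L. infantum. About 69,000 compounds were tested under these conditions; 0.6% (about 410) showed 50% or more at least once.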
Toxoplasma: 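Assay of Toxoplasma gondii numbers, read through their beta-galactosidase reporter with a colour substrate. Compounds at 10 µM. Higher reads as fewer parasites (inferred from which compounds were picked for retests). About 67,000 compounds were tested under these conditions; 0.38% (about 260) showed 50% or more at least once.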

| # | Compound | LiHisRS | Toxoplasma |
|---|---|---|---|
| 1 | `COc1ccc(CN2CCC3(CC2)CCN(c2cnn(C)c2)C3=O)cc1` | 19.27% | - |
| 2 | `Cc1ccc(NC(C)C(=O)N(C)Cc2cccc(F)c2)cc1C(N)=O` (centres undefined) | 12.33% | 3.666% |
| 3 | `c1ccc(CO[C@@H]2C[C@H]3CN(c4ncccn4)CCN3C2)nc1` | 6.897% | - |
| 4 | `Cc1ccc(CNC2(Cc3cc(C(C)(C)O)on3)COC2)o1` | 22.97% | 0.748% |
| 5 | `CC(=O)Cn1cc(C#N)c(=O)c2cc(Br)ccc21` | 14.52% | - |
| 6 | `CCN(C)CC1CCN(C(=O)Nc2ccc(-c3cc[nH]n3)cc2)C1` (centres undefined) | -3.509% | 2.041% |
| 7 | `CN(C)Cc1cc(=O)n2c(n1)CN(C(=O)Cc1ccsc1)CCC2.O=C(O)C(F)(F)F` | - | -1.658% |
| 8 | `COc1ccc(CN2Cc3cnn(C)c3C(COCC3CC3)C2)cc1` (centres undefined) | 22.12% | -1.242% |
| 9 | `CC(C)(C)c1nc(CN2CCc3onc(-c4cccc(F)c4)c3C2)no1` | 19.67% | -6.922% |
| 10 | `Cc1noc(C)c1CCC(=O)N(C)C(C)c1cccs1` (centres undefined) | 18.31% | -1.467% |
| 11 | `Cc1cc(F)c2c(c1)CCCN2Cc1cc(=O)n(C)c(=O)n1C` | 39.36% | 21.42% |
| 12 | `c1csc(N2[C@H](Cn3cncn3)C[C@@H]3CNCC[C@@H]32)n1` | -6.838% | - |
| 13 | `CCC1(CO)CCCN(Cc2nccn2Cc2ccccc2)C1` (centres undefined) | 16.39% | 2.029% |
| 14 | `CC(C)Cc1ncc(CNc2cnccc2CO)s1` | 10.17% | 2.017% |
| 15 | `Cc1nccn1CC1CCCN1CCCc1nc(-c2cccs2)no1` (centres undefined) | 16.67% | -2.24% |
| 16 | `CC1CC2(CCN(C(=O)c3csnn3)CC2)c2ccccc21` (centres undefined) | 17.54% | 8.732% |
| 17 | `CCCN(C(=O)CNC1CCc2ncnn2C1)C1=CCCCC1` (centres undefined) | 0% | -11.46% |
| 18 | `CN(Cc1ccco1)C(=O)C1CSCN1C(=O)C1CCC1` (centres undefined) | 13.46% | 17.07% |
| 19 | `O=S(=O)(CC1CCCN1S(=O)(=O)C1CC1)c1ccccc1` (centres undefined) | 10.87% | -2.719% |
| 20 | `Cc1n[nH]c(C)c1CCC(=O)NCC1COc2ccccc2C1` (centres undefined) | 15.38% | 4.942% |
| 21 | `Cc1csc(CN2CC[C@H]3C[C@@H](c4noc(C)n4)O[C@@H]3C2)n1` | 12.9% | - |
| 22 | `COCCN(Cc1sccc1C)c1nc(C)nc2sccc12` | 14.47% | 14.47% |
| 23 | `Cc1ccc(OCC(=O)NC2(C#N)CCSCC2)cc1C` | 20.43% | 4.806% |
| 24 | `Cc1ccc(Cl)cc1C(=O)N1CCC2(CC1)c1ccccc1[C@@H](N)[C@@H]2O` | 15.38% | -1.269% |
| 25 | `Cc1cccc(N2CCOCC3(C2)CN(c2ccccc2)C(=O)CO3)n1.O=C(O)C(F)(F)F` (centres undefined) | - | 2.125% |
| 26 | `Cc1ccccc1C(=O)Nc1cnn(CC(=O)NC2CCCC2)c1` | 13.33% | 12.08% |
| 27 | `CN1CC(C)(C)CN(C(=O)CCc2ccccc2)CC1=O` | 12.24% | 12.45% |
| 28 | `O=C(COCc1ccccc1)N1CCN(Cc2ccccc2F)C(=O)C1` | 7.527% | 2.017% |
| 29 | `CC(C)Oc1cc(N2C[C@@H](C)O[C@@H](C)C2)nc(N)n1` | 21.15% | 2.77% |
| 30 | `Cc1csc(CNC(=O)NC(C)c2ccc3c(c2)CCC(=O)N3)n1` (centres undefined) | 7.692% | 7.295% |
| 31 | `CC(=O)Nc1nc(CS(=O)(=O)CCCc2ccccc2)cs1` | 18.48% | 8.895% |
| 32 | `O=C(c1ccnnc1)N1CCC2(CC1)CCN(C(=O)c1cccnc1)C2` | 6.364% | -11.01% |
| 33 | `CC(C)COCC(NC(=O)c1ccncc1)c1ccco1` (centres undefined) | 2.632% | -4.929% |
| 34 | `CCN(CC)c1ccc(CNC(=O)c2cnc(C)cn2)cn1` | 14.91% | 1.123% |
| 35 | `Cc1ccc(-n2c(SCC(=O)O)nnc2-c2ccccc2)cc1` | 0% | -18.96% |
| 36 | `Cc1cnn(C(C)C2CC2)c1NC(=O)c1cnccn1` (centres undefined) | 13.33% | 0.7966% |
| 37 | `COC1CCCN(Cc2nc(Cc3ccccc3F)no2)C1` (centres undefined) | 13.33% | 1.409% |
| 38 | `N#CCCNC(=O)CSc1ccc(F)cc1F` | 11.11% | 9.82% |
| 39 | `CCC(C)(CO)NC(=O)Nc1cc2c(cc1SC)OCCO2` (centres undefined) | 15.15% | -7.448% |
| 40 | `O=C(c1ccnnc1)N1C[C@@H]2COC[C@]2(COCC2CC2)C1` | -15.6% | - |
| 41 | `CN(Cc1cccnc1)CC1CC12CCN(Cc1nccs1)CC2` (centres undefined) | 22.81% | 14.93% |
| 42 | `COCC1CC2(CCN(Cc3nc(C)cs3)CC2)CO1` (centres undefined) | 5.941% | 15.6% |
| 43 | `Cc1ccc(CN2CCC(O)(Cn3ccc4ncccc43)CC2)o1` | 17.71% | - |
| 44 | `CN(C)c1ccc(-c2noc([C@@H]3CCCN3)n2)cn1` | 16.67% | 2.136% |
| 45 | `CCc1cnc(C)nc1NC(C)C(=O)Nc1cc(F)ccc1C` (centres undefined) | 8.889% | 0.8999% |
| 46 | `COc1ccc2c(c1)C1(CCN(Cc3cccnc3)CC1)N(C)CC2.O=C(O)C(F)(F)F.O=C(O)C(F)(F)F.O=C(O)C(F)(F)F` | - | -1.746% |
| 47 | `Cc1nn(C)cc1-c1cc(C(=O)NCC(C)(C)c2cccc(F)c2)n[nH]1` | 10.07% | 20.15% |
| 48 | `Cc1cc(C)n(CC2CN(Cc3nc(C)c(C)o3)CCO2)n1` (centres undefined) | 10.26% | 8.648% |
| 49 | `Cc1cc(CNC(=O)NC(C)c2ccccc2)no1` (centres undefined) | 24.73% | -2.512% |
| 50 | `OC(CN1CCCCCCC1)c1ccc(OC(F)(F)F)cc1` (centres undefined) | 7.895% | 30.73% |
| 51 | `CCn1cc(CN2CCC(CN3CCCCC3)CC2)cc1C#N` | 16.67% | -7.956% |
| 52 | `COCCn1c(-c2cccc(OC)c2)cnc1NC(=O)NC1CCCC1` | 23.68% | -5.427% |
| 53 | `CC(C)C(=O)N1CCOC[C@H](Oc2ccc(C(F)(F)F)cc2)C1` | 31.08% | 19.58% |
| 54 | `c1cncc(NCCNC2CCCNC2)c1` (centres undefined) | 34.29% | -9.411% |
| 55 | `Cc1ccc(C(=O)Nc2cn[nH]c2)cc1` | 19.64% | 10.99% |
| 56 | `Cc1cc(C)n(CC2CN(Cc3nc4ccccc4s3)CCO2)n1` (centres undefined) | 10.53% | 15.59% |
| 57 | `CNS(=O)(=O)c1ccc(C(=O)N2CCCC2c2ccncc2)o1` (centres undefined) | 11.61% | -8.467% |

The first 6 entries again:

Result for COc1ccc(CN2CCC3(CC2)CCN(c2cnn(C)c2)C3=O)cc1 was LiHisRS: 19.27%.
Result for Cc1ccc(NC(C)C(=O)N(C)Cc2cccc(F)c2)cc1C(N)=O (centres undefined) was LiHisRS: 12.33%; Toxoplasma: 3.666%.
Result for c1ccc(CO[C@@H]2C[C@H]3CN(c4ncccn4)CCN3C2)nc1 was LiHisRS: 6.897%.
Result for Cc1ccc(CNC2(Cc3cc(C(C)(C)O)on3)COC2)o1 was LiHisRS: 22.97%; Toxoplasma: 0.748%.
Result for CC(=O)Cn1cc(C#N)c(=O)c2cc(Br)ccc21 was LiHisRS: 14.52%.
Result for CCN(C)CC1CCN(C(=O)Nc2ccc(-c3cc[nH]n3)cc2)C1 (centres undefined) was LiHisRS: -3.509%; Toxoplasma: 2.041%.

From ChEMBL document CHEMBL3988442, “University of Dundee, Small-Polar-MMV Screening Library” (2021).